Assay results reported in US20200215036A1, “BENZIMIDAZOLE COMPOUNDS AS KINASE INHIBITORS” (GB005, Inc., priority 2017, published 2020).
At least one structure is not confirmed: it was looked up by name or label, or the drawing left a doubt.

Target: T1, TXK (Homo sapiens, UniProt P42681)
T1 sequence (P42681 1-527): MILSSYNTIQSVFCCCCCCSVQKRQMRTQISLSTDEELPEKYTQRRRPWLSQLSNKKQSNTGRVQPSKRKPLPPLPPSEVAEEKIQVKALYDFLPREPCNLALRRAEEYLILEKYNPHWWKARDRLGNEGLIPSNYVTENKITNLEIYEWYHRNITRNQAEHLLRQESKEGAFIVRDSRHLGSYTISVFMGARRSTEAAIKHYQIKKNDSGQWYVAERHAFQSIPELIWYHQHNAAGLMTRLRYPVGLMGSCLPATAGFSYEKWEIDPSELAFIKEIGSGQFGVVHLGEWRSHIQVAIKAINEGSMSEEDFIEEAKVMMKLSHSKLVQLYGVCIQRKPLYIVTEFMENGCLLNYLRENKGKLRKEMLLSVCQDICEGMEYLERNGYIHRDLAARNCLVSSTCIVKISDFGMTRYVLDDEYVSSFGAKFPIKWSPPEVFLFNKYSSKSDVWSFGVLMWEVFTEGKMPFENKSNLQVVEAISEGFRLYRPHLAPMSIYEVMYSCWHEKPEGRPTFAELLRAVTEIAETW
Assay: Biochemical kinase assay (Nanosyn, micro-fluidic detection), TXK
Conditions: ratio of ITK IC50 to TXK IC50
Description: The in vitro kinase assays were performed at Nanosyn (Santa Clara, Calif.) utilizing micro-fluidic detection Technology. The test compounds were serially pre-diluted in DMSO and added, by the acoustic dispensing (Labcyte® 550), directly to 384we11 assay plates into 10 uL of a buffer with enzyme comprising: 100 mM HEPES, pH7.5, 5 mM MgCl2, 0.1% bovine serum albumin, 1 mM DTT, 0.01% Triton X-100 and the enzyme. Final DMSO concentration was maintained at 1% in all samples, including the controls. The reactions were initiated by addition of ATP (to the specified concentration) and the fluorescently labeled peptide substrate to a final concentration of 1 uM, and incubated for 3 hours at 250 C. […] Terminated plates were analyzed using Caliper LabChip® 3000 microfluidic electrophoresis instrument (Caliper Life Sciences/Perkin Elmer). […] As substrate and product are separated by electrophoresis, two peaks of fluorescence are observed. Change in the relative fluorescence intensity of the substrate and product peaks was the parameter measured, reflecting enzyme activity. […] Activity in each test sample was determined as the product to sum ratio (PSR): P/(S+P), where P is the peak height of the product and S is the peak height of the FAM-cAMP substrate. For each compound, enzyme activity was measured at 12 concentrations spaced by 3× dilution intervals. […]

## C=CC(=O)N1CC[C@]2(C1)C[C@H](n1c(NC(=O)c3cc(C(C)(C)C)no3)nc3cc(CN4CCCC4)ccc31)C2 [Compound 7]
  ITK/TXK Ratio: 106
